Source: publication PMC8930229
No constants are given. Whether binding was seen depends on the method and setting. In cells and extracts the contact can be indirect. Some results given as binding are weak or reduced against the parent protein; the word gives no strength.

Molecular target: T1, TRAF2 (human (endogenous in THP-1)) (UniProt Q12933)
T1 sequence: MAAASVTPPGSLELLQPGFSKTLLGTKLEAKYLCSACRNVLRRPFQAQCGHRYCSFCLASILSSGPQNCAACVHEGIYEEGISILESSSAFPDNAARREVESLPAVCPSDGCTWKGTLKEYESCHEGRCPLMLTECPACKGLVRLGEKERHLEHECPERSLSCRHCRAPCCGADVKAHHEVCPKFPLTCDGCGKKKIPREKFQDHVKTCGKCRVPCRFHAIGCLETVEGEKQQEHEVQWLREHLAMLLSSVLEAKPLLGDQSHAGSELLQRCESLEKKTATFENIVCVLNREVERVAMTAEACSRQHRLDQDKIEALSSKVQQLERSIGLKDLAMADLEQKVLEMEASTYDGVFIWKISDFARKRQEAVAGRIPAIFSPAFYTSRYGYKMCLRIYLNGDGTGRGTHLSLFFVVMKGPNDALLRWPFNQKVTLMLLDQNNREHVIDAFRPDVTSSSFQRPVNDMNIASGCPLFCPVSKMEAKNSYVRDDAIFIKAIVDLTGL
Experiment: co-IP; lysates of THP-1 macrophage-derived foam cells; incubated with antibodies plus protein A/G beads overnight, separated by SDS-PAGE; which antibody precipitated and which detected is not told

binding: binds
Substance: Tripartite motif-containing 37 (TRIM37) (from UniProt O94972-1 1-964)
